From PMC11252441
These are yes or no findings as the source states them, for the method shown. Binding seen in cells or lysates may run through a third protein. These calls come from enrichment with a bait or labelling near it, and not all partners need be listed.

Chains of the proteins cited; added tags and fusions are not shown. Residues count along the entry.
UniProt P20491, residues 19-86: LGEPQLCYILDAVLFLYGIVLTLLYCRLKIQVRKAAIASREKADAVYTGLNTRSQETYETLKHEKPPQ

Molecular target: FcεR1γ-FLAG (mouse) (UniProt P20491)
Assay: affinity purification with mass spectrometry; anti-FLAG antibodies and Protein A/G magnetic beads on lysate of GFP+ RAW 264.7 cells lentivirally expressing FcεR1γ-FLAG (empty virus as control); lysis 50 mM Tris-HCl pH 7.4, 150 mM NaCl, 1% Triton X-100, 5 mM EDTA; wash with 500 mM NaCl, 0.1% Triton X-100; 4 °C; Orbitrap Exploris 480, MaxQuant LFQ

| Binder | binding |
| --- | --- |
| XPO5 (protein, UniProt Q924C1 1-1204) MEMEQVNALCEELVKAVTVMMDPSSTQRYRLEALKFCEEFKEKCPICVPCGLKLAEKTQIAIVRHFGLQILEHVVKFRWNSMSRLEKVYLKNSVMELIANGTLRILEEENHIKDVLSRIVVEMIKREWPQHWPDMLMELDTLFRQGETQRELVMFILLRLAEDVVTFQTLPTQRRRDIQQTLTQNMERILNFLLNTLQENVNKYQQMKTDSSQEAEAQANCRVSVAALNTLAGYIDWVSLNHITAENCKLVETLCLLLNEQELQLGAAECLLIAVSRKGKLEDRKRLMILFGDVAMHYILSAAQTADGGGLVEKHYLFLKRLCQVLCALGNLLCALLALDANIQTPINFGMYLESFLAFTTHPSQFLRSSTHMTWGALFRHEVLSRDPALLAVIPKYLRASMTNLVKMGFPSKTDSPSCEYSRFDFDSDEDFNAFFNSSRAQHGEVVRCVCRLDPKTSFQMAAEWLKYQLSASIDTGPVNSCSTAGTGEGGFCSIFSPSYVQWEAMTFFLESVINQMFRTLDKEELPVSDGIELLQLVLNFEIKDPLVLSCVLTNVSALFPFVTYKPAFLPQVFSKLFSFVTFESVGESKAPRTRAVRNVRRHACSSINKMCRDYPDLVLPNFDMLYSHVKQLLSNELLLTQMEKCALMEALVLVSNQFKDYERQKLFLEELMAPVVNIWLSEEMCRALSDIDSFIAYVGADLKSCDPAVEDPCGLNRARMSFCVYSILGVMRRTSWPSDLEEAKAGGFVVGYTPSGNPIFRNPCTEQILRLLDNLLALVRTHNTLYTPEMLTKMAEPFTKALDIVESEKTAILGLPQPLLEFNDHPVYRTTLERMQRFFGILYENCYHILGKAGPSMQQDFYTVEDLASQLLGSAFVNLNNIPDFRLRSMLRVFVKPLVLFCPSEHYETLISPILGPLFTYLHMRLSQKWHVINQRSILCGEDEIAEDNPESQEMLEEQLVRMLTREAMDLIMACCVSKKTADHTAAPTADGDDEEMMATEVAPSSVVELTDLGKCLMKHEDVCTALLITAFNSLTWKDTLSCQRATTQLCWPLLKQVMSGTLLADAVTWLFTSVLKGLQMHGQHDGCMASLVHLAFQIYEALRPRYLEIRAVMEQIPEINKESLDQFDCKLLNPSLQKAADKRRKDHFKRLIAGCIGKPLGEQFRKEVHIKNLPWLFKKPKPMLETEVLDSEEGGLATIFEP | binds |
| IPO4 (protein, UniProt Q8VI75 1-1082) MEPAGLEQILKELLLPDTERIRRATEQLQTILRDPAALPALFDLLATATDSQIRQFAAVLTRRRLNNRWRRLAPEQRESLKSLVLTALQKETVHSVSVSLAQLSATIFRKEGLQGWPQFMNLLQHSTHSSHSPEKEVGLLLLSVVVSSQPEAFHAHQHELLQLLNETLSDVSFPGVLFYSLRTLTAIARYVRPDDVSLARMLVPKVVTALRTLIPLDEVKACEALEALDEMLETELPIINPHLSEVLTFCLEVAKNVALGEPLRVRVLCCLTFLVKVKSKALLKNRLVPPLLHALFPLMAAEPPMGQLDPEDQDSDDDDLEIGLMGETPKHFAVQVVDMLALHLPPEKLCPHVMPMLEEALRSEDPYQRKAGFLVLAVLSDGAGDHIRQRLLYPLLQIVCKGLDDPSQIVRNAALFALGQFSENLQPHISSYSEEVMPLLLSYLKSVPMGNTHHLAKACYALENFVENLGPKVQPYLPELMECMLQPLKNPSKARTKELAVSAIGAIATAAQDSLLPYFPTIMDLLREFLLTGHEDFHLVQIQSLETLGVLARALGESMKPLAEECCQLGLGLCIHIDDPDVRRCTYSLFAALSGLMGEGLGPYLPQITTLMLLSLRSTEGIVPQYDGISSFLLFDDDSEAEEEEELMDEDMEEEGDDSEISGYSVENAFFDEKEDTCTALGEISMNTCVAFLPFMDATFDEVYKLLECPHMNVRKSAYEALGQFCCALHKASQRSSSDPSSSPVLQTSLARVMPAYMQAVKVERERPVVMAVLESLTGVLRTCGSLALQPPGRLSELCNVLKAVLQKKTACQDAEEDDDEDDDQAEYDAMLLEHAGEAIPVLAATAGGHAFAPFFATFLPLLLCKTKQSCTVAEKSFAVGTLAESIQGLGTASAQFVSRLFPVLLNNAREADPEVRSNAIFGLGVLAEHGGCPAQDHFPKLLGLLLPLLARERHDRVRDNICGALARVLMASPVGKTEPQVLATLLRALPLKEDMEEWLTIGHLFSFLHQNNPEQVVDVASELLRICSLILPDNRIPPDTKAALLLLLTFLAKQHTDSFHTALGSLPNDKAQELQAMMGLT | binds |
